The list is a part of this screen's results and no random one: it gathers tests that were run many times, whatever their T/C, doses with no T/C, and many T/C values between a quarter and a half above the control. Other doses and runs of a compound stand elsewhere. T/C gives the treated animals as a percentage of the vehicle group. Some doses have a count of surviving animals in place of a T/C: the source files T/C as zero there, which appears to mark a toxic dose or a test without result, not a measured value. Some doses without a T/C left all or most animals alive at the check, yet need not have been tolerated: survival well below the control is almost never listed, so the zero probably covers shortened survival too. Survivors were counted at the toxicity check, usually on the fifth day, unless a day is given; later deaths do not show. Schedules are NCI's codes, taken here to give the interval after Q, in days (D) or hours (H), and the number of doses after X. For survival time, the PubChem record calls one and a half times the control and up active, and a quarter to a half above the control has no call in these data; cut-offs in other NCI protocols can differ. Some entries hold several experiments; the values are given in rising order. Some T/C values are followed by the survivors on the day toxicity was checked, most often the fifth; without a count, all were alive then.
Test system: CD2F1 mice, L1210 leukemia ip, survival T/C
Experiment: NCI In Vivo Anticancer Drug Screen. Data for tumor model L1210 Leukemia (intraperitoneal) in CD2F1 (CDF1) mice
Details: higher T/C = longer survival
Outline: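 Each value reflects a quotient of treated over vehicle control outcomes in mice with a transplanted tumor.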

[1] = T/C endpoint: mean survival time, dose: 200.0 mg/kg/injection, schedule: Q01DX001 (ip), vehicle: saline with Tween-80
[2] = T/C endpoint: mean survival time, dose: 400.0 mg/kg/injection, schedule: Q01DX001 (ip), vehicle: saline with Tween-80
[3] = T/C endpoint: mean survival time, dose: 400.0 mg/kg/injection, schedule: Q04DX003 (ip), vehicle: saline

In the case of Cc1[nH]c(=O)[nH]c(=O)c1N(CCF)CCCl, the survivor count (T/C endpoint: mean survival time, dose: 39.0 mg/kg/injection, schedule: Q01DX009 (ip), vehicle: saline) is reported as 10 of 10, the T/C (T/C endpoint: mean survival time, dose: 39.0 mg/kg/injection, schedule: Q04DX003 (ip), vehicle: saline) is reported as 126 % of control and the survivor count (T/C endpoint: mean survival time, dose: 65.0 mg/kg/injection, schedule: Q01DX009 (ip), vehicle: saline) is reported as 9 of 10. For the same compound, the survivor count (T/C endpoint: mean survival time, dose: 65.0 mg/kg/injection, schedule: Q04DX003 (ip), vehicle: saline) was 10 of 10, the survivor count (T/C endpoint: mean survival time, dose: 108.0 mg/kg/injection, schedule: Q01DX001 (ip), vehicle: saline) was 6 of 10 and the survivor count (T/C endpoint: mean survival time, dose: 108.0 mg/kg/injection, schedule: Q04DX003 (ip), vehicle: saline) was 8 of 10. The survivor count (T/C endpoint: mean survival time, dose: 128.0 mg/kg/injection, schedule: Q01DX001 (ip), vehicle: acid diluted with saline) was 0 of 10, the T/C (T/C endpoint: mean survival time, dose: 128.0 mg/kg/injection, schedule: Q01DX001 (ip), vehicle: saline) was 128 [8 of 10 alive] and 147 % of control [8 of 10 alive] and the survivor count (T/C endpoint: mean survival time, dose: 180.0 mg/kg/injection, schedule: Q01DX001 (ip), vehicle: saline) was 0 of 10. For the same compound, the survivor count (T/C endpoint: mean survival time, dose: 180.0 mg/kg/injection, schedule: Q04DX003 (ip), vehicle: saline) was 3 of 10, the survivor count (T/C endpoint: mean survival time, dose: 300.0 mg/kg/injection, schedule: Q01DX001 (ip), vehicle: saline) was 0 of 10 and the survivor count (T/C endpoint: mean survival time, dose: 500.0 mg/kg/injection, schedule: Q01DX001 (ip), vehicle: saline) was 0 of 10. For the same compound, the survivor count (T/C endpoint: median survival time, dose: 2.0 mg/kg/injection, schedule: Q01DX009 (sc), vehicle: acid diluted with saline) was 10 of 10, the T/C (T/C endpoint: median survival time, dose: 32.0 mg/kg/injection, schedule: Q01DX009 (ip), vehicle: acid diluted with saline) was 130 % of control and the T/C (T/C endpoint: median survival time, dose: 32.0 mg/kg/injection, schedule: Q01DX009 (sc), vehicle: acid diluted with saline) was 128 % of control. For the same compound, the survivor count (T/C endpoint: median survival time, dose: 32.0 mg/kg/injection, schedule: Q03HX008 (oral), vehicle: acid diluted with saline) was 2 of 10, the T/C (T/C endpoint: median survival time, dose: 32.0 mg/kg/injection, schedule: Q03HX016 (oral), vehicle: acid diluted with saline) was 131 % of control [8 of 10 alive] and the survivor count (T/C endpoint: median survival time, dose: 32.0 mg/kg/injection, schedule: Q03HX024 (oral), vehicle: acid diluted with saline) was 5 of 10. For the same compound, the survivor count (T/C endpoint: median survival time, dose: 64.0 mg/kg/injection, schedule: Q03HX008 (oral), vehicle: acid diluted with saline) was 0 of 10, the survivor count (T/C endpoint: median survival time, dose: 64.0 mg/kg/injection, schedule: Q03HX016 (oral), vehicle: acid diluted with saline) was 0 of 10 and the survivor count (T/C endpoint: median survival time, dose: 128.0 mg/kg/injection, schedule: Q01DX001 (ip), vehicle: acid diluted with saline) was 5 of 10. For the same compound, the T/C (T/C endpoint: median survival time, dose: 128.0 mg/kg/injection, schedule: Q01DX009 (oral), vehicle: acid diluted with saline) was 125 % of control, the survivor count (T/C endpoint: median survival time, dose: 128.0 mg/kg/injection, schedule: Q03HX008 (oral), vehicle: acid diluted with saline) was 0 of 10 and the survivor count (T/C endpoint: median survival time, dose: 128.0 mg/kg/injection, schedule: Q03HX016 (oral), vehicle: acid diluted with saline) was 0 of 10. For the same compound, the survivor count (T/C endpoint: median survival time, dose: 128.0 mg/kg/injection, schedule: Q08DX002 (ip), vehicle: acid diluted with saline) was 5 of 10, the survivor count (T/C endpoint: median survival time, dose: 256.0 mg/kg/injection, schedule: Q01DX001 (ip), vehicle: acid diluted with saline) was 0 of 10 and the survivor count (T/C endpoint: median survival time, dose: 512.0 mg/kg/injection, schedule: Q08DX002 (oral), vehicle: acid diluted with saline) was 5 of 10. The survivor count (T/C endpoint: median survival time, dose: 1024.0 mg/kg/injection, schedule: Q01DX001 (oral), vehicle: acid diluted with saline) was 0 of 10 and the survivor count (T/C endpoint: median survival time, dose: 1024.0 mg/kg/injection, schedule: Q08DX002 (oral), vehicle: acid diluted with saline) was 0 of 10.

With c1ccc2c3c(c4c(c2c1)CN(C1CCCCC1)CO4)OCN(C1CCCCC1)C3 the survivor count (T/C endpoint: median survival time, dose: 3.0 mg/kg/injection, schedule: Q01DX009 (ip), vehicle: other) was 1 of 6, the survivor count (T/C endpoint: median survival time, dose: 3.12 mg/kg/injection, schedule: Q01DX009 (ip), vehicle: other) was 0 of 6 and the survivor count (T/C endpoint: median survival time, dose: 6.25 mg/kg/injection, schedule: Q01DX009 (ip), vehicle: other) was 0 of 6. The survivor count (T/C endpoint: median survival time, dose: 12.5 mg/kg/injection, schedule: Q01DX009 (ip), vehicle: other) was 0 of 6, the survivor count (T/C endpoint: median survival time, dose: 25.0 mg/kg/injection, schedule: Q01DX009 (ip), vehicle: other) was 0 of 6 and the survivor count (T/C endpoint: median survival time, dose: 50.0 mg/kg/injection, schedule: Q01DX009 (ip), vehicle: other) was 0 of 6.

With NC(CS)=NC1CN2CCC1CC2 (configuration not stated) the survivor count (T/C endpoint: mean survival time, dose: 200.0 mg/kg/injection, schedule: Q04DX002 (ip), vehicle: saline) was 0 of 3.

With C(#Cc1ccccc1)/C=C/C=C/c1ccccc1 the survivor count [1] was 6 of 6 and the survivor count [2] was 6 of 6.

With [O-][n+]1onc2ccccc21 the survivor count (T/C endpoint: mean survival time, dose: 100.0 mg/kg/injection, schedule: Q04DX002 (ip), vehicle: saline with Tween-80) was 1 of 3, the survivor count (T/C endpoint: mean survival time, dose: 200.0 mg/kg/injection, schedule: Q04DX002 (ip), vehicle: saline with Tween-80) was 0 of 3 and the survivor count (T/C endpoint: mean survival time, dose: 400.0 mg/kg/injection, schedule: Q04DX002 (ip), vehicle: saline with Tween-80) was 0 of 3.

CCCC1CCC(=C2C(=O)CCC2=O)O1 (configuration not stated) was tested, and the survivor count (T/C endpoint: median survival time, dose: 400.0 mg/kg/injection, schedule: Q01DX009 (ip), vehicle: saline with Tween-80) was 0 of 6.

CCOC(=O)CC(COC)C(Br)(C(=O)OCC)C(=O)OCC (configuration not stated) was tested, and the survivor count (T/C endpoint: mean survival time, dose: 25.0 mg/kg/injection, schedule: Q01DX009 (ip), vehicle: Klucel (hydroxypropylcellulose) (HPC)) was 6 of 6, the survivor count (T/C endpoint: mean survival time, dose: 50.0 mg/kg/injection, schedule: Q01DX009 (ip), vehicle: Klucel (hydroxypropylcellulose) (HPC)) was 6 of 6 and the survivor count (T/C endpoint: mean survival time, dose: 100.0 mg/kg/injection, schedule: Q01DX009 (ip), vehicle: Klucel (hydroxypropylcellulose) (HPC)) was 4 of 6. The survivor count (T/C endpoint: mean survival time, dose: 200.0 mg/kg/injection, schedule: Q01DX009 (ip), vehicle: Klucel (hydroxypropylcellulose) (HPC)) was 2 of 6 and the survivor count (T/C endpoint: mean survival time, dose: 400.0 mg/kg/injection, schedule: Q01DX009 (ip), vehicle: Klucel (hydroxypropylcellulose) (HPC)) was 2 of 6.

With CC(=O)c1ccc[n+](Cc2c(Cl)cccc2Cl)c1 the survivor count (T/C endpoint: mean survival time, dose: 100.0 mg/kg/injection, schedule: Q04DX003 (ip), vehicle: saline) was 5 of 6, the survivor count (T/C endpoint: mean survival time, dose: 200.0 mg/kg/injection, schedule: Q04DX003 (ip), vehicle: saline) was 1 of 6 and the survivor count [3] was 1 of 6.

N=C(N)SCCSC(=N)N was tested, and the survivor count [3] was 0 of 6.

With O=NNc1ccccn1 the T/C (T/C endpoint: mean survival time, dose: 12.0 mg/kg/injection, schedule: Q04DX003 (ip), vehicle: saline) was 128 % of control [5 of 6 alive], the T/C (T/C endpoint: mean survival time, dose: 18.0 mg/kg/injection, schedule: Q04DX003 (ip), vehicle: saline) was 127 % of control and the T/C (T/C endpoint: mean survival time, dose: 27.0 mg/kg/injection, schedule: Q04DX003 (ip), vehicle: saline) was 128 % of control. The T/C (T/C endpoint: median survival time, dose: 6.25 mg/kg/injection, schedule: Q01DX005 (ip), vehicle: saline) was 125 and 128 % of control, the T/C (T/C endpoint: median survival time, dose: 12.5 mg/kg/injection, schedule: Q01DX005 (ip), vehicle: saline) was 140 and 145 % of control and the T/C (T/C endpoint: median survival time, dose: 12.5 mg/kg/injection, schedule: Q01DX009 (ip), vehicle: saline) was 134 % of control. The T/C (T/C endpoint: median survival time, dose: 25.0 mg/kg/injection, schedule: Q01DX005 (ip), vehicle: saline) was 140 % of control and the survivor count (T/C endpoint: median survival time, dose: 25.0 mg/kg/injection, schedule: Q01DX009 (ip), vehicle: saline) was 10 of 10.

With CCc1cc(O)cc(C)c1Cl the survivor count (T/C endpoint: mean survival time, dose: 400.0 mg/kg/injection, schedule: Q01DX009 (ip), vehicle: saline with Tween-80) was 1 of 6.

For Cc1sc2ncnc(Cl)c2c1C, the survivor count [1] was 3 of 6 and the survivor count [2] was 0 of 6.

Cc1ccc(CCl)cc1 was tested, and the survivor count (T/C endpoint: mean survival time, dose: 200.0 mg/kg/injection, schedule: Q01DX009 (ip), vehicle: saline with Tween-80) was 2 of 6.

O=C1N[C@@H]2C(=C[C@H](O)[C@@H](O)[C@H]2O)c2cc3c(c(O)c21)OCO3 was tested, and the survivor count (T/C endpoint: median survival time, dose: 10.0 mg/kg/injection, schedule: Q01DX009 (ip), vehicle: saline with Tween-80) was 2 of 6.

In the case of O=C1C(=O)c2ccccc2-c2ccccc21.O=C1C(=O)c2ccccc2-c2ccccc21.[Hg], the survivor count (T/C endpoint: mean survival time, dose: 100.0 mg/kg/injection, schedule: Q01DX001 (ip), vehicle: saline with Tween-80) is reported as 0 of 6, the survivor count [1] is reported as 0 of 6 and the survivor count [2] is reported as 0 of 6.

Reference: PubChem BioAssay AID256 (DTP/NCI, 2004)
